Values joined by “and” are separate entries in the source; they are usually repeats but may differ in a detail not shown here. Equal values may be shown once.
Columns and labels:
[1] = test system: HEK cells; assay: HT dye switch fluorescence profiles of HT-iPAK4 assemblies in HEK cells; format: cell-based
Experimental: To test whether assemblies could encode HT dye timestamps, HEK cells growing HT-iPAK4 assemblies were successively washed with different colors of HT-ligand dyes at Δt=2 h intervals in the sequence JF503, JF669, JFX608, JF503, JF669 (FIG. 2A; see FIGS. 11A-11B for dye structures, photophysical properties, and synthesis of JFX608). The cells were then fixed and imaged with spectrally resolved confocal microscopy. Clear progression of colored bands matching the sequence of dye additions was observed.
To test the limits of how fast dye transitions could be encoded, assemblies were made with seven dye switches at Δt=1 h. At this short interval, peaks were still visible, but their amplitude was suppressed relative to the parts of the assembly with no dye switches, indicating incomplete transitions in dye labeling (FIG. 12E).
A protein ticker tape may stably store its information for extended times. Since the iPAK4 assemblies were held together by non-covalent interactions, it was tested whether monomer exchange blurred the HT dye boundaries over time. Two dishes were exposed to the same sequence of dye switches at intervals of Δt=2 h. One dish was fixed at t=8 h, and the other was returned to the incubator and fixed a day later at t=30 h. The fluorescence profiles for the section of the assemblies that grew concurrently (from t=0 to 8 h) were then compared. The mean profiles were nearly indistinguishable between the early dish (N=22 assemblies) and the late dish (N=12 assemblies) (FIG. 2E). Thus, monomer exchange was negligible over one day.
The precision with which the timing of cellular events could be identified was studied next. […]
Image processing and data analysis: Images of individual assemblies were rotated to align the long axis to the x-axis. Fluorescence profiles were then calculated as the median fluorescence in each spectral channel across the width of the assembly. […] Dye transitions were identified as local maxima in the second derivative of the dye fluorescence as a function of position. […]

[2] = test system: primary neuron culture; assay: Time-lapse imaging of iPAK4 assembly growth in primary neuron culture; format: cell-based, rat
[3] = test system: HEK cells; assay: Time-lapse microscopy of iPAK4 assembly nucleation and growth in HEK cells; format: cell-based

B1: iPAK4: fusion of the catalytic domain of the Pak4 kinase and the 38 amino acid iBox domain of its inhibitor Inka1 (SEQ ID NO: 1) (protein)
chain: MDYKDDDDKSGSEAEDWTAALLNRGRSRQPLVLGDNCFADLVHNWMELPEEFPAAPAVPGPPGPRSPQREPQRVSHEQFRAALQLVVDPGDPRSYLDNFIKIGEGSTGIVCIATVRSSGKLVAVKKMDLRKQQRRELLFNEVVIMRDYQHENVVEMYNSYLVGDELWVVMEFLEGGALTDIVTHTRMNEEQIAAVCLAVLQALSVLHAQGVIHRDIKSDSILLTHDGRVKLSDFGFCAQVSKEVPRRKSLVGTPYWMAPELISRLPYGPEVDIWSLGIMVIEMVDGEPPYFNEPPLKAMKMIRDNLPPRLKNLHKVSPSLKGFLDRLLVRDPAQRATAAELLKHPFLAKAGPPASIVPLMRQNRTR
assembly growth rate between timestamps ([1]; 10 h interval between JF669 and JF525, mean±s.d., N=223): 1.1±0.58 μm/s | growth rate on slower-growing end relative to faster-growing end ([1]; N=153 assemblies, 95% C.I.): 0.77±0.05 fold | speed of slower-growing end relative to faster end ([1]; mean±s.d., N=17 assemblies): 62±19% | neurons with assemblies that had only one assembly [2]: 73% | growth rate in the linear phase ([2]; neurons): 2.5±1.5 μm/h | assembly length at onset of linear growth ([2]; neurons, mean±s.d., N=22): 31±12 μm | initial assembly growth rate upon nucleation [3]: ~0.5 μm/min | linear-phase assembly growth rate [3]: 1-2 μm/h and 1.46±0.64 μm/h | assembly-containing cells with only one assembly ([3]; 288 of 333 cells): 86% | onset of assembly growth after transfection ([3]; CMV::iPAK4 (95%) and CMV::HT-iPAK4 (5%)): 14 to 20 h | length of assemblies at the end of the nucleation phase ([3]; mean±s.d., n=46): 26±7 μm

— patent US20230151437A1, “USE OF PROTEIN ASSEMBLIES TO RECORD CELLULAR EVENTS” (President and Fellows of Harvard College, priority 2021, published 2023)
